Laboratory results as given in publication doi:10.1101/2024.03.03.583230.
No constants are given. Whether binding was seen depends on the method and setting. In cells and extracts the contact can be indirect. Some results given as binding are weak or reduced against the parent protein; the word gives no strength. Tags and fused reporters may be left off the sequences shown.

Sequences of proteins named here, by UniProt entry; tags and fusion partners are left off. Residues count along the entry.
UniProt P30530, residues 26-894: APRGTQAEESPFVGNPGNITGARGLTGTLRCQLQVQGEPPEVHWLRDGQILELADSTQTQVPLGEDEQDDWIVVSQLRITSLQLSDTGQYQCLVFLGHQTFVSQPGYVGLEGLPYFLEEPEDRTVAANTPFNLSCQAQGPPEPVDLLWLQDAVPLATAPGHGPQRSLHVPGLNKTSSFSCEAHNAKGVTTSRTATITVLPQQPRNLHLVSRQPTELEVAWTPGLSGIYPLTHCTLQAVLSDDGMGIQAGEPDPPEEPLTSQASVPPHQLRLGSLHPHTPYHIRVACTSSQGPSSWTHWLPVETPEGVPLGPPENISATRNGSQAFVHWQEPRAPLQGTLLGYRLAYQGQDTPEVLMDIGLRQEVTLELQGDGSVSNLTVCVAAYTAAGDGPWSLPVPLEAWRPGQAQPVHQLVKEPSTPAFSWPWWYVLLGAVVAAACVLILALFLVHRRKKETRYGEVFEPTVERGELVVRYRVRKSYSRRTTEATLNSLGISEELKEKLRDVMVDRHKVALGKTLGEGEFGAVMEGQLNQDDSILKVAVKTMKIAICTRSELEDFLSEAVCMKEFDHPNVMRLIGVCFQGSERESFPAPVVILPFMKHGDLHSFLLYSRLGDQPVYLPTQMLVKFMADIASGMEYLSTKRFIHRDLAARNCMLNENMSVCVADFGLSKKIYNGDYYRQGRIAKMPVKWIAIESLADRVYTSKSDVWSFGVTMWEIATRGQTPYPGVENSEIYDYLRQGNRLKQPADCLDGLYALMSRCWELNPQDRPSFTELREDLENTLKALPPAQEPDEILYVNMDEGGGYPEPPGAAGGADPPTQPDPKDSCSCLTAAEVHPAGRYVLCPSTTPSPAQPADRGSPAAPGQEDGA
UniProt P08581, residues 25-1390: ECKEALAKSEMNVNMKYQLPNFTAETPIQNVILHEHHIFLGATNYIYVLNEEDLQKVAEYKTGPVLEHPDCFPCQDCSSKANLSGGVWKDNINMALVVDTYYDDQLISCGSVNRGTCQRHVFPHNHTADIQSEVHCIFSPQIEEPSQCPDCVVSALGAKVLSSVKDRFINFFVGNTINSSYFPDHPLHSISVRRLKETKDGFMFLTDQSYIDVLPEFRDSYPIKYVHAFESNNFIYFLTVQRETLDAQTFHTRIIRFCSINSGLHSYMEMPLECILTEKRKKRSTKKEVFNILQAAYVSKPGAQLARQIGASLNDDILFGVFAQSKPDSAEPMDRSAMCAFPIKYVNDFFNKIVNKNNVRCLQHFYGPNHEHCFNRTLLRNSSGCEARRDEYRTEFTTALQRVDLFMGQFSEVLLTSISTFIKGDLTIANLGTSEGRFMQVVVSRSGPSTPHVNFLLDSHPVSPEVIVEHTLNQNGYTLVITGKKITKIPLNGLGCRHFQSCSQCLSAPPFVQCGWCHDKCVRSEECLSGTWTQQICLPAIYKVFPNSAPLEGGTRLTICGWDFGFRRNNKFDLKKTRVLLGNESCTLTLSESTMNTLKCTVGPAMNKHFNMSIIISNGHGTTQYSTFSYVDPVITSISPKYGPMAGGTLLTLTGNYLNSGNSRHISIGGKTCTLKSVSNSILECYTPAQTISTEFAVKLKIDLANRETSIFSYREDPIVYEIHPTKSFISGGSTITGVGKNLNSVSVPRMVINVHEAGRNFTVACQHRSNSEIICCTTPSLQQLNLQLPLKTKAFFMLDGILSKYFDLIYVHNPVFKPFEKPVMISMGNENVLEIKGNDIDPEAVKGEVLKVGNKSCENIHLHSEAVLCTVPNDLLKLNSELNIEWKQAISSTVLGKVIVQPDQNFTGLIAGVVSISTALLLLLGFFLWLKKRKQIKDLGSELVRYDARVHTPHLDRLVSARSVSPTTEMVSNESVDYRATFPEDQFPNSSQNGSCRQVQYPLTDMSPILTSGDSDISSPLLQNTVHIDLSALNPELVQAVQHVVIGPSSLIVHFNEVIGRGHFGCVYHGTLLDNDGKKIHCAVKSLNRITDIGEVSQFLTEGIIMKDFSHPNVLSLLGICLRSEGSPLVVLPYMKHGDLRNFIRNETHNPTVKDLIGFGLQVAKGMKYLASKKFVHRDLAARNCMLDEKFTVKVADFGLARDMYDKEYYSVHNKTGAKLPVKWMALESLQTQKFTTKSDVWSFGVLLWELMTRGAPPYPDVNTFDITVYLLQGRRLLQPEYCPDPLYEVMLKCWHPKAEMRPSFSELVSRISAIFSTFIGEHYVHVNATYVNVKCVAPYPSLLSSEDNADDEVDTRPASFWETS

Tests used:
[1] = target: T1, Flag-labeled PFKP (Phosphofructokinase, Platelet Type), 3x Flag tag (human) (UniProt Q01813); experiment: co-IP
T1 sequence: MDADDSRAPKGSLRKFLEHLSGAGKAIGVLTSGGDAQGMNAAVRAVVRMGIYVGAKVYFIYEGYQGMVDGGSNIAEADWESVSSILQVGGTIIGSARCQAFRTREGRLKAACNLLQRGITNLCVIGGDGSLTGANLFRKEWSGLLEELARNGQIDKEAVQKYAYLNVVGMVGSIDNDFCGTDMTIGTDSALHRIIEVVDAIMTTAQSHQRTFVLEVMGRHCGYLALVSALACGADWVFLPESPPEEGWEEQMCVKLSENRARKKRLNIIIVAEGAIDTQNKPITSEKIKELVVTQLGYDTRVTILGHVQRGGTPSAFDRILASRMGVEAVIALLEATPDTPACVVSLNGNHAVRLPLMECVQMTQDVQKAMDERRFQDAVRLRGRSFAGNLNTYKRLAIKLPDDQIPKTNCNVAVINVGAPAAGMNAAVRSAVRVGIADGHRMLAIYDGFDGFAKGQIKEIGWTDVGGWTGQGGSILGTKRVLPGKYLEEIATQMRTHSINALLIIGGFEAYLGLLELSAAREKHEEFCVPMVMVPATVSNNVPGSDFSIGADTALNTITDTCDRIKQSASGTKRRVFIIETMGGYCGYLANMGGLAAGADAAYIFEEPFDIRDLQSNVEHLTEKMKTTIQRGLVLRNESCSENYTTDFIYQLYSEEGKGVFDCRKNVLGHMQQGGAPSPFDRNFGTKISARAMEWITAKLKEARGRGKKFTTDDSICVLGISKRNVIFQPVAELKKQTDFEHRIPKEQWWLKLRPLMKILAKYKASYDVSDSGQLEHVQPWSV

[2] = target: AXL (AXL Receptor Tyrosine Kinase, Anexelekto; tyrosine-protein kinase receptor UFO) (human (endogenous in H1299)) (UniProt P30530); experiment: co-IP

AXL (AXL Receptor Tyrosine Kinase, Anexelekto; tyrosine-protein kinase receptor UFO) (from UniProt P30530 26-894)
binding [1]: binds

MET (MET proto-oncogene, Receptor Tyrosine Kinase) (from UniProt P08581 25-1390)
binding [1]: no binding

B1: Flag-labeled PFKP (Phosphofructokinase, Platelet Type), 3x Flag tag (enzyme, UniProt Q01813 1-784)
chain: MDADDSRAPKGSLRKFLEHLSGAGKAIGVLTSGGDAQGMNAAVRAVVRMGIYVGAKVYFIYEGYQGMVDGGSNIAEADWESVSSILQVGGTIIGSARCQAFRTREGRLKAACNLLQRGITNLCVIGGDGSLTGANLFRKEWSGLLEELARNGQIDKEAVQKYAYLNVVGMVGSIDNDFCGTDMTIGTDSALHRIIEVVDAIMTTAQSHQRTFVLEVMGRHCGYLALVSALACGADWVFLPESPPEEGWEEQMCVKLSENRARKKRLNIIIVAEGAIDTQNKPITSEKIKELVVTQLGYDTRVTILGHVQRGGTPSAFDRILASRMGVEAVIALLEATPDTPACVVSLNGNHAVRLPLMECVQMTQDVQKAMDERRFQDAVRLRGRSFAGNLNTYKRLAIKLPDDQIPKTNCNVAVINVGAPAAGMNAAVRSAVRVGIADGHRMLAIYDGFDGFAKGQIKEIGWTDVGGWTGQGGSILGTKRVLPGKYLEEIATQMRTHSINALLIIGGFEAYLGLLELSAAREKHEEFCVPMVMVPATVSNNVPGSDFSIGADTALNTITDTCDRIKQSASGTKRRVFIIETMGGYCGYLANMGGLAAGADAAYIFEEPFDIRDLQSNVEHLTEKMKTTIQRGLVLRNESCSENYTTDFIYQLYSEEGKGVFDCRKNVLGHMQQGGAPSPFDRNFGTKISARAMEWITAKLKEARGRGKKFTTDDSICVLGISKRNVIFQPVAELKKQTDFEHRIPKEQWWLKLRPLMKILAKYKASYDVSDSGQLEHVQPWSV
binding [2]: binds
